Assay [1] addresses T1, endogenous PIASy of cultured mouse mesangial cells (mouse (endogenous in mouse mesangial cells)) (UniProt Q9JM05).
T1 sequence: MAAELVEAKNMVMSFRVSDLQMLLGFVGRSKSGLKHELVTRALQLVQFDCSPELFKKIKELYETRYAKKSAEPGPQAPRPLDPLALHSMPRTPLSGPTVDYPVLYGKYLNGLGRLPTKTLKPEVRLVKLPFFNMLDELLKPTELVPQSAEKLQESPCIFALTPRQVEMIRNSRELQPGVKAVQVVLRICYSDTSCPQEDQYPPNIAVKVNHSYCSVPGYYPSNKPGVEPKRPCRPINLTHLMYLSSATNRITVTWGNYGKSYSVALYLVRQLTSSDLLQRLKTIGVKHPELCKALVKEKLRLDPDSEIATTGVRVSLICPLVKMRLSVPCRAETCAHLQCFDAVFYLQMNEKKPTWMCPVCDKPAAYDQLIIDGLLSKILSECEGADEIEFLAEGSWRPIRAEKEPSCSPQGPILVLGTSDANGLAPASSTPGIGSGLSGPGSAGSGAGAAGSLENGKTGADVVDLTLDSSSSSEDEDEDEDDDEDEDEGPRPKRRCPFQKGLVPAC
Put plainly: co-IP; endogenous proteins, mouse mesangial cell lysate in 20 mmol/L Tris-HCl pH 7.4, 150 mmol/L NaCl, 0.5% NP-40; IP with anti-PIAS4 antibody and protein A agarose, overnight at 4°C; Western blot with E12 antibody.

By UniProt entry, the sequences of proteins in these tests, tags left out.
UniProt P15806: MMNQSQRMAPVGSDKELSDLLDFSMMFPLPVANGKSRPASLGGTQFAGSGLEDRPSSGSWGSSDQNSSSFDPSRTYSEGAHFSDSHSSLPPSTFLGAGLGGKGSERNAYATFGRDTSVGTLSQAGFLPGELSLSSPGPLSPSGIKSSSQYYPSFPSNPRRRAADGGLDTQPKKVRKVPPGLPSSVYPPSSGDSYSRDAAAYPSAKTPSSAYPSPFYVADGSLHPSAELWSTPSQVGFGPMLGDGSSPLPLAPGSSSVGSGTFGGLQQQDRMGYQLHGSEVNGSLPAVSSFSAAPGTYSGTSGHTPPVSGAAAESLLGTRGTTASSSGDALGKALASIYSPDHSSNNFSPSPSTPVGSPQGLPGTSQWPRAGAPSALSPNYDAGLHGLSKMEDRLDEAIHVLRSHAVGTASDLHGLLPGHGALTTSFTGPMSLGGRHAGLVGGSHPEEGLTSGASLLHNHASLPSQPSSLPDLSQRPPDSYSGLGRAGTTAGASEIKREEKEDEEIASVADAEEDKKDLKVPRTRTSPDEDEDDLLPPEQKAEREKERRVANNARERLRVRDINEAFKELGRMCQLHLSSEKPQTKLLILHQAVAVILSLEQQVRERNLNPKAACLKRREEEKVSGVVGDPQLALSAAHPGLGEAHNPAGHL

The target in assay [2] is T2, flag epitope-tagged PIASy (mouse) (UniProt Q9JM05).
T2 sequence: T1 sequence
Nature of the assay: co-IP; COS7 cells cotransfected, lysed 48 h later in 20 mmol/L Tris-HCl pH 7.4, 150 mmol/L NaCl, 0.5% NP-40; IP with anti-flag M2 affinity gel or with anti-myc (9E10) and protein G agarose, overnight at 4°C; Western blot. For orientation: A western blot detects proteins with antibodies after separation by electrophoresis.

For assay [3], the target named is myc epitope-tagged E12 (mouse) (UniProt P15806). Described as above.

These are yes or no findings as the source states them, for the method shown. Binding seen in cells or lysates may run through a third protein. Some binding calls cover weakened binding; strength is not graded here. For part of these data: Sequences can lack the tags named with a protein.

Data on three molecules can be found in publication PMC3400623.

With “endogenous E12 of cultured mouse mesangial cells (from UniProt P15806 1-651)”, in assay [1], the binding result is reported as “binds”.
Regarding “myc epitope-tagged E12 (from UniProt P15806 1-651)”, the binding entry in assay [2] was “binds”.

B1: flag epitope-tagged PIASy (protein, UniProt Q9JM05 1-507)
chain: T1 sequence
B1: in assay [3], the binding entry is recorded as “binds”.
